Data source: PubChem BioAssay AID1224830 (NIAID, 2016)
In all, the deposit lists about 18,000 reagents; this is a part drawn at random. Of all reagents, about 2,900 (16%) are marked active. 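Calls are made per well; low scores hint the gene aids the LPS response, high scores that it dampens it.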 Repeated entries: four replicate wells of each siRNA pool.

Assay: 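Regulators of TLR4 signalling towards TNF-alpha in macrophage-like cells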 (primary screen)
System: human THP-1 monocytic leukaemia cells, TNF dual-luciferase reporter clone, PMA-differentiated to macrophage-like cells
Reagents: siRNA pool against human genes, 50 nM
Duration: LPS for 4 h, given about 3 days after siRNA transfection
Conditions: bacterial LPS (TLR4 ligand), 10 ng/ml
Detection: 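Ratio of firefly to renilla light, scaled to the plate median and expressed as a robust z-score per replicate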
Scale: TNF reporter robust z-score: higher = stronger TNF reporter response to LPS
Hit rule: 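a well is active when its z-score exceeds 2.8 or falls below -1.5; control wells carry no call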

Silencing of TRIB3 came out at: TNF reporter robust z-score 0.01; inactive.
Knock-down of TRIB3 came out at: TNF reporter robust z-score -0.45; inactive.
After knock-down of TRIB3, the screen gave TNF reporter robust z-score -0.31; inactive.
After knock-down of TRIB3 the results were TNF reporter robust z-score -1.22; inactive.
For BAGE2, the entry reads TNF reporter robust z-score -0.9; inactive.
Against BAGE2, the values are TNF reporter robust z-score 0.16; inactive.
BAGE2 showed TNF reporter robust z-score 0.26; inactive.
For BAGE2, the entry reads TNF reporter robust z-score -0.91; inactive.
Knock-down of MED19 came out at: TNF reporter robust z-score -1.16; inactive.
MED19 gave TNF reporter robust z-score -0.82; inactive.
MED19 showed TNF reporter robust z-score -0.83; inactive.
After knock-down of MED19, the record shows TNF reporter robust z-score -0.93; inactive.
Silencing of KRT74 came out at: TNF reporter robust z-score 1.66; inactive.
Knock-down of KRT74 resulted in: TNF reporter robust z-score 0.84; inactive.
Against KRT74, the values are TNF reporter robust z-score 1.35; inactive.
Depletion of KRT74 gave: TNF reporter robust z-score 1.62; inactive.
Depletion of LYPD4 gave: TNF reporter robust z-score -0.73; inactive.
LYPD4 gave TNF reporter robust z-score 0.58; inactive.
For LYPD4 the deposit lists TNF reporter robust z-score 0.78; inactive.
Depletion of LYPD4 resulted in: TNF reporter robust z-score 1.84; inactive.
OXLD1 showed TNF reporter robust z-score -0.59; inactive.
OXLD1 showed TNF reporter robust z-score 0.35; inactive.
For OXLD1, the entry reads TNF reporter robust z-score 0.68; inactive.
Against OXLD1 the deposit lists TNF reporter robust z-score 0.3; inactive.
For FAM86B1, the values are TNF reporter robust z-score -0.08; inactive.
Silencing of FAM86B1 came out at: TNF reporter robust z-score -1.34; inactive.
FAM86B1 showed TNF reporter robust z-score -0.97; inactive.
For FAM86B1, the entry reads TNF reporter robust z-score -1.33; inactive.
Depletion of PBK resulted in: TNF reporter robust z-score -1.06; inactive.
Against PBK, the values are TNF reporter robust z-score 0.77; inactive.
Against PBK, the values are TNF reporter robust z-score -0.18; inactive.
For PBK, the values are TNF reporter robust z-score 0.31; inactive.
For CEP15, the values are TNF reporter robust z-score 0.88; inactive.
For CEP15, the values are TNF reporter robust z-score 1.19; inactive.
Depletion of CEP15 came out at: TNF reporter robust z-score 0.35; inactive.
CEP15 showed TNF reporter robust z-score -0.19; inactive.
With knock-down of ATP12A, the screen gave TNF reporter robust z-score -0.83; inactive.
ATP12A showed TNF reporter robust z-score -1.28; inactive.
With knock-down of ATP12A, the record shows TNF reporter robust z-score -0.91; inactive.
Against ATP12A, the entry reads TNF reporter robust z-score 0.71; inactive.

In a second layout: entries from further up.
gene symbol,TNF reporter robust z-score,call
ATP12A,-0.83,inactive
ATP12A,-1.28,inactive
ATP12A,-0.91,inactive
ATP12A,0.71,inactive

Further records:
Against CTDP1, the entry reads TNF reporter robust z-score 0.04; inactive.
Silencing of CTDP1 resulted in: TNF reporter robust z-score 1.79; inactive.
Knock-down of CTDP1 gave: TNF reporter robust z-score 1.48; inactive.
After knock-down of CTDP1 the results were TNF reporter robust z-score 0.64; inactive.
Silencing of BCL7B resulted in: TNF reporter robust z-score -0.28; inactive.
Against BCL7B, the entry reads TNF reporter robust z-score -0.63; inactive.
Silencing of BCL7B gave: TNF reporter robust z-score -0.39; inactive.
Against BCL7B the deposit lists TNF reporter robust z-score -0.27; inactive.
NXT1 showed TNF reporter robust z-score -1.8; active.
Silencing of NXT1 came out at: TNF reporter robust z-score -1.23; inactive.
Against NXT1, the values are TNF reporter robust z-score -0.92; inactive.
Against NXT1 the deposit lists TNF reporter robust z-score -0.69; inactive.
Against MYL5, the entry reads TNF reporter robust z-score -0.29; inactive.
After knock-down of MYL5, the record shows TNF reporter robust z-score 0.15; inactive.
For MYL5, the entry reads TNF reporter robust z-score -0.73; inactive.
Knock-down of MYL5 came out at: TNF reporter robust z-score 0.44; inactive.
With knock-down of TLR8, the screen gave TNF reporter robust z-score -0.93; inactive.
After knock-down of TLR8, the screen gave TNF reporter robust z-score -0.42; inactive.
TLR8 gave TNF reporter robust z-score -0.84; inactive.
With knock-down of TLR8, the screen gave TNF reporter robust z-score -0.34; inactive.
